Data taken from PMC5422253, “Cryo-EM Structure of a Relaxase Reveals the Molecular Basis of DNA Unwinding during Bacterial Conjugation”.
Construct, isoform or probe ends are uncertain for at least one entry. For part of these data: Weaker means in comparison with the reference protein, sequence or condition of that experiment. For part of these data: At least one verdict rests on a figure or table, not on a statement of the authors.

Legend:
TraI-MBP = TraI-MBP (UniProt Q6TDU5); assay: size exclusion chromatography; details: 1:1 complex, peak I; photocleavable PC linker C3 between nt 30 and 31; EPR complexes: PBS pH 7.4, 1 mM MgCl2; recombinant protein; residues 1-1756; label: 5'-Cy5, 3'-6-FAM; single-stranded DNA
TraI-MBP + TraI1-1475 = assay: size exclusion chromatography; details: 1:1:1 complex, peak II; photocleavable PC linker C3 between nt 30 and 31; EPR complexes: PBS pH 7.4, 1 mM MgCl2; recombinant protein; label: 5'-Cy5, 3'-6-FAM; single-stranded DNA
TraI A1105W = TraI A1105W (UniProt Q6TDU5); assay: fluorescence anisotropy; details: 2-3 fold decrease stated for most mutants, Kd only in figure; Anisotropy: 10 nM 22-merAlexa488, 50 mM Tris pH 7.2, 100 mM NaCl, 25 C, 20 min; recombinant protein; residues 1-1756; protein details: N-terminal His6 with enterokinase site; label: 3'-Alexa488; single-stranded DNA
TraI M795A = TraI M795A (UniProt Q6TDU5); assay: fluorescence anisotropy; details: 2-3 fold decrease stated for most mutants, Kd only in figure; Anisotropy: 10 nM 22-merAlexa488, 50 mM Tris pH 7.2, 100 mM NaCl, 25 C, 20 min; recombinant protein; residues 1-1756; protein details: N-terminal His6 with enterokinase site; label: 3'-Alexa488; single-stranded DNA
TraI R330A = TraI R330A (UniProt Q6TDU5); assay: fluorescence anisotropy; details: 2-3 fold decrease stated for most mutants, Kd only in figure; Anisotropy: 10 nM 22-merAlexa488, 50 mM Tris pH 7.2, 100 mM NaCl, 25 C, 20 min; recombinant protein; residues 1-1756; protein details: N-terminal His6 with enterokinase site; label: 3'-Alexa488; single-stranded DNA
TraI Y190A = TraI Y190A (UniProt Q6TDU5); assay: fluorescence anisotropy; details: 2-3 fold decrease stated for most mutants, Kd only in figure; Anisotropy: 10 nM 22-merAlexa488, 50 mM Tris pH 7.2, 100 mM NaCl, 25 C, 20 min; recombinant protein; residues 1-1756; protein details: N-terminal His6 with enterokinase site; label: 3'-Alexa488; single-stranded DNA

Sequence | binding result (TraI-MBP) | binding result (TraI-MBP + TraI1-1475) | binding result (TraI A1105W) | binding result (TraI M795A) | binding result (TraI R330A) | binding result (TraI Y190A)
GCAAAAACTTGTTTTTGCGTGGGGTGTGGTGCTTTTGGTGGTGAGAACC [49-merCy5*6-FAM] | binds | binds |  |  |  | 
GGTGCTTTTGGTGGTGAGAACC [22-merAlexa488] |  |  | binds more weakly | binds more weakly | binds more weakly | binds more weakly
